# Measured values as given in the supplement of paper PMC8728848.
# The list shows a part of the results.
# Key:
# Experiment in all cases: glycan array binding signal (z-score within array); higher = stronger binding
# Conditions in all cases: glycan notation: IUPAC condensed, linker removed
# Fuc(a1-2)Gal = target: Fuc(a1-2)Gal
# Outline: (§1)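 Glycan array binding is given as a within-array Z-score, which can be read as non-binding when negative. The arrays, 3228 of them, came from the Consortium for Functional Glycomics database and were retained only where the protein sequence was available. Z-scores were averaged across arrays of the same protein sequence at different concentrations or buffers and across linkers.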
# Fuc(a1-2)Gal(b1-3)GalNAc = target: Fuc(a1-2)Gal(b1-3)GalNAc
# Outline: as §1
# [1] = target: Fuc(a1-2)Gal(b1-3)GalNAc(a1-3)[Fuc(a1-2)]Gal(b1-4)Glc
# Outline: as §1
# [2] = target: Fuc(a1-2)Gal(b1-3)GalNAc(a1-3)[Fuc(a1-2)]Gal(b1-4)GlcNAc
# Outline: as §1
# [3] = target: Fuc(a1-2)Gal(b1-3)GalNAc(b1-3)Gal
# Outline: as §1
# [4] = target: Fuc(a1-2)Gal(b1-3)GalNAc(b1-3)Gal(a1-4)Gal(b1-4)Glc
# Outline: as §1
# [5] = target: Fuc(a1-2)Gal(b1-3)GalNAc(b1-4)[Neu5Ac(a2-3)]Gal(b1-4)Glc
# Outline: as §1
# Fuc(a1-2)Gal(b1-3)GlcNAc = target: Fuc(a1-2)Gal(b1-3)GlcNAc
# Outline: as §1
# [6] = target: Fuc(a1-2)Gal(b1-3)GlcNAc(b1-2)Man(a1-3)[Fuc(a1-2)Gal(b1-3)GlcNAc(b1-2)Man(a1-6)]Man(b1-4)GlcNAc(b1-4)GlcNAc
# Outline: as §1
# [7] = target: Fuc(a1-2)Gal(b1-3)GlcNAc(b1-2)Man(a1-3)[Fuc(a1-2)Gal(b1-3)GlcNAc(b1-2)Man(a1-6)]Man(b1-4)GlcNAc(b1-4)[Fuc(a1-6)]GlcNAc
# Outline: as §1
# [8] = target: Fuc(a1-2)Gal(b1-3)GlcNAc(b1-3)Gal(b1-4)Glc
# Outline: as §1
# [9] = target: Fuc(a1-2)Gal(b1-3)GlcNAc(b1-3)GalNAc
# Outline: as §1
# [10] = target: Fuc(a1-2)Gal(b1-3)GlcNAc(b1-3)[Fuc(a1-2)Gal(b1-3)GlcNAc(b1-6)]GalNAc
# Outline: as §1
# [11] = target: Fuc(a1-2)Gal(b1-3)GlcNAc(b1-3)[Gal(b1-4)GlcNAc(b1-6)]Gal(b1-4)Glc
# Outline: as §1
# [12] = target: Fuc(a1-2)Gal(b1-3)GlcNAc(b1-3)[Neu5Ac(a2-6)Gal(b1-4)GlcNAc(b1-6)]Gal(b1-4)Glc
# Outline: as §1
# [13] = target: Fuc(a1-2)Gal(b1-3)GlcNAc6S
# Outline: as §1
# [14] = target: Fuc(a1-2)Gal(b1-3)[Fuc(a1-4)]GlcNAc
# Outline: as §1
# [15] = target: Fuc(a1-2)Gal(b1-3)[Fuc(a1-4)]GlcNAc(b1-2)Man(a1-3)[Fuc(a1-2)Gal(b1-3)[Fuc(a1-4)]GlcNAc(b1-2)Man(a1-3)]Man(b1-4)GlcNAc(b1-4)GlcNAc
# Outline: as §1
# [16] = target: Fuc(a1-2)Gal(b1-3)[Fuc(a1-4)]GlcNAc(b1-2)Man(a1-3)[Fuc(a1-2)Gal(b1-3)[Fuc(a1-4)]GlcNAc(b1-2)Man(a1-6)]Man(b1-4)GlcNAc(b1-4)[Fuc(a1-6)]GlcNAc(b1-4)[Fuc(a1-6)]GlcNAc
# Outline: as §1
# [17] = target: Fuc(a1-2)Gal(b1-3)[Fuc(a1-4)]GlcNAc(b1-3)[Fuc(a1-3)[Gal(b1-4)]GlcNAc(b1-6)]Gal(b1-4)Glc
# Outline: as §1
# [18] = target: Fuc(a1-2)Gal(b1-3)[Fuc(a1-4)]GlcNAc(b1-3)[Gal(b1-4)GlcNAc(b1-6)]Gal(b1-4)Glc
# Outline: as §1
# Fuc(a1-2)Gal(b1-4)Glc = target: Fuc(a1-2)Gal(b1-4)Glc
# Outline: as §1
# Fuc(a1-2)Gal(b1-4)Glc6S = target: Fuc(a1-2)Gal(b1-4)Glc6S
# Outline: as §1
# Fuc(a1-2)Gal(b1-4)GlcNAc = target: Fuc(a1-2)Gal(b1-4)GlcNAc
# Outline: as §1
# [19] = target: Fuc(a1-2)Gal(b1-4)GlcNAc(b1-2)Man
# Outline: as §1
# [20] = target: Fuc(a1-2)Gal(b1-4)GlcNAc(b1-2)Man(a1-3)[Fuc(a1-2)Gal(b1-4)GlcNAc(b1-2)Man(a1-6)]Man(b1-4)GlcNAc(b1-4)GlcNAc
# Outline: as §1
# [21] = target: Fuc(a1-2)Gal(b1-4)GlcNAc(b1-2)Man(a1-3)[Fuc(a1-2)Gal(b1-4)GlcNAc(b1-2)Man(a1-6)]Man(b1-4)GlcNAc(b1-4)[Fuc(a1-6)]GlcNAc
# Outline: as §1
# [22] = target: Fuc(a1-2)Gal(b1-4)GlcNAc(b1-2)[Fuc(a1-2)Gal(b1-4)GlcNAc(b1-4)]Man(a1-3)[Fuc(a1-2)Gal(b1-4)GlcNAc(b1-2)Man(a1-6)]Man(b1-4)GlcNAc(b1-4)GlcNAc
# Outline: as §1
# [23] = target: Fuc(a1-2)Gal(b1-4)GlcNAc(b1-3)Gal(b1-4)GlcNAc
# Outline: as §1
# [24] = target: Fuc(a1-2)Gal(b1-4)GlcNAc(b1-3)Gal(b1-4)GlcNAc(b1-2)Man(a1-3)[Fuc(a1-2)Gal(b1-4)GlcNAc(b1-3)Gal(b1-4)GlcNAc(b1-2)Man(a1-6)]Man(b1-4)GlcNAc(b1-4)GlcNAc
# Outline: as §1
# [25] = target: Fuc(a1-2)Gal(b1-4)GlcNAc(b1-3)Gal(b1-4)GlcNAc(b1-3)Gal(b1-4)GlcNAc
# Outline: as §1
# [26] = target: Fuc(a1-2)Gal(b1-4)GlcNAc(b1-3)GalNAc
# Outline: as §1
# [27] = target: Fuc(a1-2)Gal(b1-4)GlcNAc(b1-3)[Fuc(a1-2)Gal(b1-4)GlcNAc(b1-6)]GalNAc
# Outline: as §1
# [28] = target: Fuc(a1-2)Gal(b1-4)GlcNAc(b1-3)[Fuc(a1-3)[Gal(b1-4)]GlcNAc(b1-6)]Gal(b1-4)Glc
# Outline: as §1
# [29] = target: Fuc(a1-2)Gal(b1-4)GlcNAc(b1-6)GalNAc
# Outline: as §1
# [30] = target: Fuc(a1-2)Gal(b1-4)GlcNAc6S
# Outline: as §1
# [31] = target: Fuc(a1-2)Gal(b1-4)[Fuc(a1-3)]GlcNAc
# Outline: as §1
# [32] = target: Fuc(a1-2)Gal(b1-4)[Fuc(a1-3)]GlcNAc(b1-2)Man(a1-3)[Fuc(a1-2)Gal(b1-4)[Fuc(a1-3)]GlcNAc(b1-2)Man(a1-6)]Man(b1-4)GlcNAc(b1-4)[Fuc(a1-6)]GlcNAc
# Outline: as §1
# [33] = target: Fuc(a1-2)Gal(b1-4)[Fuc(a1-3)]GlcNAc(b1-2)[Fuc(a1-2)Gal(b1-4)[Fuc(a1-3)]GlcNAc(b1-4)]Man(a1-3)[Fuc(a1-2)Gal(b1-4)[Fuc(a1-3)]GlcNAc(b1-2)Man(a1-6)]Man(b1-4)GlcNAc(b1-4)GlcNAc
# Outline: as §1
# [34] = target: Fuc(a1-2)Gal(b1-4)[Fuc(a1-3)]GlcNAc(b1-3)Gal(b1-4)[Fuc(a1-3)]GlcNAc
# Outline: as §1
# [35] = target: Fuc(a1-2)Gal(b1-4)[Fuc(a1-3)]GlcNAc(b1-3)Gal(b1-4)[Fuc(a1-3)]GlcNAc(b1-3)Gal(b1-4)[Fuc(a1-3)]GlcNAc
# Outline: as §1
# [36] = target: Fuc(a1-2)Gal(b1-4)[Fuc(a1-3)]GlcNAc(b1-3)GalNAc
# Outline: as §1
# [37] = target: Fuc(a1-2)Gal(b1-4)[Fuc(a1-3)]GlcNAc(b1-3)[Neu5Ac(a2-6)Gal(b1-4)GlcNAc(b1-6)]Gal(b1-4)Glc
# Outline: as §1
# [38] = target: Fuc(a1-2)Gal3S(b1-4)GlcNAc
# Outline: as §1
# [39] = target: Fuc(a1-2)Gal6S(b1-3)GlcNAc
# Outline: as §1
binder,measurement,setting,value
Nc3LysM-2 (protein) AHVLQARQSVSCDFATAANTGDTCASFAAAWGITEAAFAKLNPGVSCPGNLIAGSEYCVIGTVSTGAPTTTKAATTSTTPPTTTTTTKATTLSTSTTSVSPTGPSPQMPSITSTCNKFYQVQSGDGCWSIEQAQGVSASDFMAWNKAVDAQCDNLWLGYYVCVGVKGGSSPPPTTTTKPASSSAPTPQMPNTVSNCKKFHKVVSGDGCWAIEQAAGISASDFAKWNPYVDAACDNLWLGYYVCIGV,glycan array binding signal (z-score),Fuc(a1-2)Gal,-0.698
same,glycan array binding signal (z-score),Fuc(a1-2)Gal(b1-3)GalNAc,-0.369
same,glycan array binding signal (z-score),[1],0.193
same,glycan array binding signal (z-score),[2],-0.746
same,glycan array binding signal (z-score),[3],0.129
same,glycan array binding signal (z-score),[4],-0.566
same,glycan array binding signal (z-score),[5],0.388
same,glycan array binding signal (z-score),Fuc(a1-2)Gal(b1-3)GlcNAc,0.966
same,glycan array binding signal (z-score),[6],-0.335
same,glycan array binding signal (z-score),[7],1.25
same,glycan array binding signal (z-score),[8],-0.628
same,glycan array binding signal (z-score),[9],0.157
same,glycan array binding signal (z-score),[10],1.55
same,glycan array binding signal (z-score),[11],0.735
same,glycan array binding signal (z-score),[12],-1.69
same,glycan array binding signal (z-score),[13],-1.29
same,glycan array binding signal (z-score),[14],-1.14
same,glycan array binding signal (z-score),[15],0.078
same,glycan array binding signal (z-score),[16],0.307
same,glycan array binding signal (z-score),[17],0.706
same,glycan array binding signal (z-score),[18],-1.06
same,glycan array binding signal (z-score),Fuc(a1-2)Gal(b1-4)Glc,0.288
same,glycan array binding signal (z-score),Fuc(a1-2)Gal(b1-4)Glc6S,0.176
same,glycan array binding signal (z-score),Fuc(a1-2)Gal(b1-4)GlcNAc,0.515
same,glycan array binding signal (z-score),[19],0.135
same,glycan array binding signal (z-score),[20],2.21
same,glycan array binding signal (z-score),[21],0.188
same,glycan array binding signal (z-score),[22],0.669
same,glycan array binding signal (z-score),[23],-0.324
same,glycan array binding signal (z-score),[24],1.23
same,glycan array binding signal (z-score),[25],0.908
same,glycan array binding signal (z-score),[26],-0.881
same,glycan array binding signal (z-score),[27],-0.441
same,glycan array binding signal (z-score),[28],0.1
same,glycan array binding signal (z-score),[29],-1.6
same,glycan array binding signal (z-score),[30],1.84
same,glycan array binding signal (z-score),[31],-0.85
same,glycan array binding signal (z-score),[32],0.791
same,glycan array binding signal (z-score),[33],1.01
same,glycan array binding signal (z-score),[34],-0.75
same,glycan array binding signal (z-score),[35],-0.114
same,glycan array binding signal (z-score),[36],0.948
same,glycan array binding signal (z-score),[37],-0.656
same,glycan array binding signal (z-score),[38],1.14
same,glycan array binding signal (z-score),[39],-0.506

# Three entries picked at random from the list so far, as already listed:
binder,measurement,setting,value
Nc3LysM-2 (protein) AHVLQARQSVSCDFATAANTGDTCASFAAAWGITEAAFAKLNPGVSCPGNLIAGSEYCVIGTVSTGAPTTTKAATTSTTPPTTTTTTKATTLSTSTTSVSPTGPSPQMPSITSTCNKFYQVQSGDGCWSIEQAQGVSASDFMAWNKAVDAQCDNLWLGYYVCVGVKGGSSPPPTTTTKPASSSAPTPQMPNTVSNCKKFHKVVSGDGCWAIEQAAGISASDFAKWNPYVDAACDNLWLGYYVCIGV,glycan array binding signal (z-score),[25],0.908
same,glycan array binding signal (z-score),[36],0.948
same,glycan array binding signal (z-score),[33],1.01
